Assay results published in patent publication US20230220074A1.
Results are given in words; binding and its absence hold for the method and conditions named. Some binding calls cover weakened binding; strength is not graded here.

Amino acid sequences for entries named in this document (tags omitted). A change or cut given only in a name is not applied to a line headed by its entry.
UniProt Q9UKJ1: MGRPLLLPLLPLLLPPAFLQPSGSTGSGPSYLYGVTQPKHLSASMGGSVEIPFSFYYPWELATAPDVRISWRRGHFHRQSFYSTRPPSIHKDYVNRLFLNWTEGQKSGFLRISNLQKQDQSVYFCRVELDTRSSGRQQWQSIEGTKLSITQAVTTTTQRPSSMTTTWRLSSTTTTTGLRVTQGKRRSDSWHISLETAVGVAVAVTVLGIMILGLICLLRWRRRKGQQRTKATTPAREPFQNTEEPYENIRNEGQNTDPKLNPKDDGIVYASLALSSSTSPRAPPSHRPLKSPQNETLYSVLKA

Legend:
human PILRA (human) [1] = target: human PILRA (human) (UniProt Q9UKJ1); assay: flow cytometry, conditioned medium on 293 cells expressing human PILRA
human PILRA (human) [2] = target: human PILRA (human) (UniProt Q9UKJ1); assay: flow cytometry competition on 293FS hPILRA cells

Row | Binder | binding (human PILRA (human) [1]) | binding (human PILRA (human) [2])
1 | hPA-001 (antibody, V domains shown) VH: QVTLKESGPGILQPSQTLSLTCSFSGFSLTTFGMGVGWIRQPSGKGLEWLAHIWWDDDKYYNPALKSRLTISKDISKNQVFLKIANVDTADTATYYCARIEDYGNPFDYWGQGTTLTVSS VL: DIQMNQSPSSLSASLGDTITITCHASQNIHVWLSWYQQKPGNIPKLLIYKASNLHTGVPSRFSGSGSGTGFTLTISSLQPEDIATYYCQQGQSYPLTFGAGTKLELK | binds | 
2 | hPA-002 (antibody, V domains shown) VH: QVTLQESGPGILQPSQTLSLTCSFSGFSLSTFGMGVGWIRQPSGKGLEWLAHIWWDDDKYYNPALKSRLTISKDTSKNQVFLKIASVDTADIATYYCARVEDYGNPFDYWGQGTTLTVSS VL: DIQMNQSPSSLSASLGDTITITCHASQNIHVWLNWYQQKPGNIPKLLIYKASNLHTGVPSRFSGSGSGTGFTVTISSLQPEDIATYYCQQGQSYPLTFGAGTKLELK | binds | binds
3 | hPA-004 (antibody, V domains shown) VH: QVTLKESGPGMLQPSQTLSLACSFSGFSLNSFGVAVGWIRQPSGKGLEWLAHIWWDDDKSYNPALKSRLTISKDTSKNQVFLKLANVDTADTATYYCTRIADYGNHFDYWGQGTALTVSS VL: DIQMNQSPSSLSASLGDTITITCHASQNSHVWLSWYQQKPGNIPKLLIYKASNLHTGVPSRFSGSGSGTGFTLTISGLQPEDIATYYCQQGQTYPFTFGSGTKLEIK | binds | binds
4 | hPA-005 (antibody, V domains shown) VH: QVILKESGPGILQSSQTLSLTCSFSGFSLSTFGMGVGWIRQPSGKGLESLAHIWWDDDKFYNPALKSRLTISKDTSKSQVFLKIANVDTADIATYYCTRIEDYGSYFAYWGQGTTLTVSS VL: DVQMNQSPSSLSASLGDPITITCHASQNIHVWLNWYQQRPGNIPRLLIYKASNLHTGVPSRFSGSGSGTGFTLTISSLQPEDIATYYCQQGQSYPYTFGGGTKLEIK | binds | binds
